Measured values from paper PMC6925144, “A prospective compound screening contest identified broader inhibitors for Sirtuin 1” (Scientific Reports, 2019).
Over roughly 3,200 compounds, “TSA(without NAD+) / Primary screening (TSA) / delta Tm (K)” has its median near -0.07; the highest 2% begin near 0.37. This is one part of the list.

Protein sequences, listed by entry. Tags and fused reporters are not part of them. Residues count along the entry.
UniProt Q96EB6, 2-747 limits assumed: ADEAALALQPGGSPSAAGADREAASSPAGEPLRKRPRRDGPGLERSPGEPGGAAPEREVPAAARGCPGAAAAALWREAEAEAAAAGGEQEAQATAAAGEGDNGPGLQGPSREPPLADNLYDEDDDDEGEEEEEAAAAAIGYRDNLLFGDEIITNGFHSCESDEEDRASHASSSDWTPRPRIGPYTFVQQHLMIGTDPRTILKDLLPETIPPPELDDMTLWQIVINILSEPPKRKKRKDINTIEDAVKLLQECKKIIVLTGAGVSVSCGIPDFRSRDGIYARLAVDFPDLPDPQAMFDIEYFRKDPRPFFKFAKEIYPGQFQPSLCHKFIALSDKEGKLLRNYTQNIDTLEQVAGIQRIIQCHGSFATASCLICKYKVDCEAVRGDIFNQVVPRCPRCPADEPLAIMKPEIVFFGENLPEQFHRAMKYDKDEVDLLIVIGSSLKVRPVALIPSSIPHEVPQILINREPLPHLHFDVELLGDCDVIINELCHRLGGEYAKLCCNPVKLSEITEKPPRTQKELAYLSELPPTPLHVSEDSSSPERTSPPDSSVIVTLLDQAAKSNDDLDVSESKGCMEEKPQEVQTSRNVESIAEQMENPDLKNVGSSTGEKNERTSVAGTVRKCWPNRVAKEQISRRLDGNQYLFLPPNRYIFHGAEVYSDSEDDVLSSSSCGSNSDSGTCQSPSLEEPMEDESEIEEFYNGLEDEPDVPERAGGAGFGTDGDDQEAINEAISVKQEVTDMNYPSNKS

Each compound was assayed against NAD-dependent deacetylase Sirtuin 1 (human, UniProt Q96EB6) (assay: primary screen, delta tm). Conditions: 10 µM.
Set-up: single well (n = 1)
Procedure, shortened: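 Thermal shift of Sirtuin 1 measured without NAD+, compound at 10 µM (n = 1); value is ΔTm, with hits defined as ΔTm > 0.45 K or < −1.5 K. Hits retested at 5, 10, 20 µM (n = 4) and counterscreened on bovine carbonic anhydrase and ABL1 SH2 domain.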

| SMILES | TSA(without NAD+) / Primary screening (TSA) / delta Tm (K) |
| --- | --- |
| Cc1nc(N2CCN(CC3CCCO3)CC2)c2c(-c3ccccc3)csc2n1 (centres unmarked) | -0.05 |
| Cc1ccc(C(=O)NNC(=O)c2cccc(S(=O)(=O)N(C)c3ccc(C)cc3)c2)cc1 | -0.14 |
| O=C(NCc1nnc2n1-c1ccccc1CC2)c1ccc2ccccc2c1 | 0.02 |
| Cc1ccc2[nH]c(C(=O)O)c(C)c2c1 | -0.11 |
| Cc1c(C(=O)NCc2nnc3n2CCC3)oc2ccc(Cl)cc12 | 0.27 |
| Cc1ccc(S(=O)(=O)Nc2ccc(F)cc2)cc1C(=O)NCc1cccc(NC(=O)C2CC2)c1 | 0.08 |
| O=C(CCc1nc2ccccc2c(=O)[nH]1)Nc1ccc(N2CCN(Cc3ccccc3)CC2)cc1 | -0.12 |
| CCCCn1ccnc1C(=O)c1cccc(S(=O)(=O)N(C)c2ccccc2)c1 | -0.02 |
| CC(C)(C)OC(=O)N1CCCCC1CNc1cnc2ccccc2n1 (centres unmarked) | -0.04 |
| O=C(O)CCCCCN1C(=O)/C(=C/c2cccc3ccccc23)SC1=S | -0.03 |
| NC(=O)C1CCN(Cc2nc3cc(Cl)ccc3c(=O)[nH]2)CC1 | 0.02 |
| CN(Cc1nc2ccccc2s1)C(=O)CSc1nnc(-c2cccnc2)n1C1CC1 | 0.29 |
| Cc1ccc(C23CC4CC(CC(C(=O)OCC(=O)Nc5ccc6c(c5)OCO6)(C4)C2)C3)cc1 | 0.36 |
| CN(C(=O)CSc1ncnc2c1cnn2C)C1CCCc2ccccc21 (centres unmarked) | -0.04 |
| O=c1c2ccccc2n2c(SCc3nnc(-c4cccs4)o3)nnc2n1-c1ccccc1 | -0.08 |
| Cc1ccc(CCNC(=O)CNC(=O)c2cc3ccccc3[nH]2)cn1 | 0.17 |
| CC(=O)c1cc(Cl)ccc1OCc1cc(=O)n2ccccc2n1 | 0.05 |
| CC(C)(N)CCN | -0.14 |
| NC(=O)C1CCN(C(=O)/C=C/c2ccc(-c3ccccc3F)o2)C1 (centres unmarked) | -0.12 |

| SMILES | TSA(without NAD+) / Primary screening (TSA) / delta Tm (K) |
| --- | --- |
| COc1ccc(C2C(C(=O)c3ccc(OC)c(OC)c3)=C(O)C(=O)N2CCCN2CCOCC2)cc1 (centres unmarked) | -0.05 |
| CCOC(=O)CN(Cc1ccccc1)Cc1cc(=O)c(OC)co1 | -0.13 |
| O=C([O-])COCCO | -0.27 |
| NC(=O)c1cc(NC(=O)CN2CCN(c3ccccc3O)CC2)cc(C(N)=O)c1 | 0.07 |
| N#CC(C(=O)c1ccc(NS(=O)(=O)c2ccccc2)cc1)c1nc(-c2ccccn2)cs1 (centres unmarked) | 0.46 |
| CN1C(=O)N(CC(=O)O)C(=O)C12CCCCC2 | -0.02 |
| CN(C)/C=N/c1ncnc2c1cnn2-c1ccccc1 | -0.04 |
| Cc1ccc(C(=O)N2CCC(C(=O)Nc3ccccc3)CC2)cc1S(=O)(=O)NCc1ccccc1 | -0.02 |
| CC(NC(=O)COC(=O)c1cccc(S(=O)(=O)NCc2ccccc2)c1)C12CC3CC(CC(C3)C1)C2 (centres unmarked) | -0.08 |
| CC(C)COc1ccc(C(=O)C2=C(O)C(=O)N(CCN3CCOCC3)C2c2ccncc2)cc1 (centres unmarked) | -0.03 |
| N#Cc1cc(O)cc(C(=O)OCC(=O)NC2(C#N)CCCCC2)c1 | -0.08 |
| Cc1ccc(N(C)S(=O)(=O)c2cccc(C(=O)Nc3sc4c(c3C(N)=O)CCCC4)c2)cc1 | -0.12 |
| Cc1ccc(C(=O)N(C)C)cc1OC(=O)c1ccc2[nH]c(C(F)F)nc2c1 | 0.18 |
| Cc1ccc(C(=O)NCC(=O)N2CC=C(c3c[nH]c4cc(F)ccc34)CC2)s1 | 0.07 |
| Cc1cc(CN2CCN(S(=O)(=O)c3cc(C(N)=O)n(C)c3)CC2)on1 | -0.13 |
| COc1ccc(NN=C2C(=O)NC(=S)NC2=O)cc1 | -0.21 |
| Nc1ncnc2c1ncn2[C@@H]1O[C@H](CO)[C@@H](O)[C@H]1O | -0.13 |
| CCc1cc(C(=O)Nc2cc(C(N)=O)ccc2N2CCCC2)sc1C | -0.04 |
| Cc1cccc(CN2CCN(C(=O)COC(=O)c3ccc(C(N)=O)cc3)CC2)c1 | -0.02 |

| SMILES | TSA(without NAD+) / Primary screening (TSA) / delta Tm (K) |
| --- | --- |
| CC(=O)Nc1ccc(NCc2nnc3n(C)c(=O)c4ccccc4n23)cc1 | -0.07 |
| O=C(CSc1nnc(NCc2ccco2)s1)N1CCN(C/C=C/c2ccccc2)CC1 | 0.02 |
| COc1ccc(OC)c(N(CC(=O)NN=C2CCC(C(C)(C)C)CC2)S(=O)(=O)c2ccc(OC)c(OC)c2)c1 (centres unmarked) | 0.09 |
| COc1ccc(N(C)S(=O)(=O)c2cccc(C(=O)OCCN3C(=O)c4ccccc4C3=O)c2)cc1 | -0.13 |
| O=C(Nc1cccc(S(=O)(=O)N2CCOCC2)c1)c1cn(-c2ccccc2)nc1-c1ccccc1 | -0.02 |
| CCc1cc(O)nc(Cn2c(N)nc(C#N)c2C#N)n1 | -0.21 |
| O=C1NC(=S)NC(=O)C1=Cc1cn(-c2ccccc2)nc1-c1cc2ccccc2oc1=O | -0.18 |
| CC(NCC(=O)NCC(=O)Nc1ccc(F)cc1)c1cccs1 (centres unmarked) | -0.08 |
| COc1ccc(NC(=O)c2ccccc2NC(=O)COC(=O)C23CC4CC(CC(O)(C4)C2)C3)cc1 | 0.19 |
| CCN1CCN(Cc2ccc(CNC(=O)OCC(F)(F)F)cc2)CC1 | -0.01 |
| COc1ncnc2c1CN(Cc1nc(-c3ccccc3)oc1C)CC2 | -0.01 |
| COCCOc1cccc(Br)c1 | -0.04 |
| Nc1nsc(N2CCN(c3nc(C4CC4)nc4sc5c(c34)CCCC5)CC2)n1 | -0.07 |
| COc1ccc(-c2nnc(S)n2CC(=O)Nc2ccc(C(N)=O)cc2)cc1 | -0.01 |
| O=C(COC(=O)c1cc(-c2ccc(Cl)cc2)nc2ccccc12)NNC(=O)c1cccs1 | -0.01 |
| COc1ccc2c(C=C3C(=O)NC(=S)NC3=O)cccc2c1 | -0.22 |
| O=C(Cn1[nH]c(=O)c2ccccc2c1=O)Nc1ccc(N2CCN(Cc3ccccc3)CC2)cc1 | 0.02 |
| CCCCn1nnnc1COC(=O)c1cccc(S(=O)(=O)N(C)c2ccc(OC)cc2)c1 | -0.02 |

Copied from the list:
TSA(without NAD+) / Primary screening (TSA) / delta Tm (K), CC(NCC(=O)NCC(=O)Nc1ccc(F)cc1)c1cccs1 (centres unmarked) reads -0.08
TSA(without NAD+) / Primary screening (TSA) / delta Tm (K), Nc1nsc(N2CCN(c3nc(C4CC4)nc4sc5c(c34)CCCC5)CC2)n1 reads -0.07
TSA(without NAD+) / Primary screening (TSA) / delta Tm (K), O=C(Nc1cccc(S(=O)(=O)N2CCOCC2)c1)c1cn(-c2ccccc2)nc1-c1ccccc1 reads -0.02
